# From PubChem BioAssay (EPA / NIEHS)
# Inconclusive results, whose numbers are uncertain, are shown with a selection of clear calls. Where the call is inconclusive, the potency comes from a doubtful curve fit. The source made the active and inactive calls. Rule for the calls: active = hit-call score of the fitted dose curve at least 0.9, where 1 is the maximum; inconclusive = response in the unintended direction; inactive = score below 0.9.
# Read-out: xenobiotic metabolism (CYP1A2), CYP1A2 (gene 1544)
# Assay: CLD_CYP1A2_48hr: CellzDirect (CLD) Gene Expression Assay for xenobiotic metabolism (CYP1A2) at 48 hours (AID 2283703)
# Experimental: CLD_48hr is a cell-based, multiplexed-readout assay that uses hepatocyte, a human liver primary cell, with measurements taken at 48 hours after chemical dosing in a 96-well plate.CLD_CYP1A2_48hr is one of 16 assay component(s) measured or calculated from the CLD_48hr assay. It is designed to make measurements of mRNA induction, a form of inducible reporter, as detected with chemiluminescence signals by Quantitative Nuclease Protection Assay (qNPA) technology.Data from the assay component CLD_CYP1A2_48hr was analyzed at the endpoint, CLD_CYP1A2_48hr, in the positive analysis fitting direction relative to DMSO as the negative control and baseline of activity. Using a type of inducible reporter, gain-of-signal activity can be used to understand changes in the reporter gene as they relate to the gene CYP1A2. Furthermore, this assay endpoint can be referred to as a primary readout. To generalize the intended target to other relatable targets, this assay endpoint is annotated to the cyp intended target family, where subfamily is xenobiotic metabolism.
# Human hepatocyte cultures were treated daily for two consecutive days with fresh dosing solutions containing appropriate concentrations of the 320 ToxCast chemicals (chemical identities were blinded to CellzDirect and other ToxCast collaborators), vehicle control (0.2% DMSO), and positive control inducers as summarized in Table 1. Due to the large number of treatment groups and chemicals examined, the ToxCast chemicals were divided into two groups (spanning two independent cultures of hepatocytes from separate donor preparations (Hu778: ToxCast plates 1 and 2; Hu776: ToxCast plates 3 and 4). Each preparation of human hepatocyte cultures was treated with respective vehicle control, medium only control, set of six positive controls/reference chemicals for the five hepatic receptor pathways, and a subset of eight of the ToxCast chemicals (indoxacarb, pyrithiobac-sodium, norflurazon, cyhalofop-butyl, methomyl, thiram, acetochlor, and propiconazole). These replicate data, coupled with internal replicates designed within the blinded ToxCast chemical library, provided additional data to evaluate interindividual differences between hepatocyte preparations and their potential impact on chemical profiles.Cell morphology and integrity were evaluated using phase-contrast microscopy as an indicator of hepatocyte cell health (Tyson & Green, 1987). Cultures for each treatment group (i.e., media, vehicle [0.2% DMSO], positive control inducers [multiple concentrations], and the ToxCast chemicals [multiple concentrations]) were observed and cell morphology was assessed relative to vehicle control cultures at each harvest time point (0, 6, 24, or 48 h). […] Images were evaluated at the conclusion of the study to assess changes in cell integrity and account for the effects of chemical exposure on uncharacteristic changes in concentration-dependent gene expression profiles. The results from these determinations of apparent cytotoxicity were annotated (yes/no) alongside the corresponding qNPA data for reference.At the conclusion of each treatment period, hepatocyte cultures (96-well) were washed with 1 volume of HBSS, lysed by addition of 25 ul ArrayPlate lysis buffer (HTG, Tucson, AZ), and 70 ul/well of Denaturation Oil, denatured by incubation at 95C for 10 min, and frozen at approximately -70C until analysis by nuclease protection assay (qNPA) (Roberts et al., 2007). For qNPA analysis, cell lysates were thawed at 50C for approximately 30 min, qNPA probes were added, and samples were incubated at 95C for 10 min to begin the detection process by denaturing the target RNA, dissociating the duplexes and secondary structure hybridization. At the conclusion of the hybridization period, S1 nuclease reagent was added to each sample to digest all nonprotected nucleotides at 50C for 60-90 min. […]
SMILES,AC50,outcome
C=CCOC(=O)C(C)(C)OC(=O)c1cc(-n2c(=O)cc(C(F)(F)F)n(C)c2=O)ccc1Cl,inconclusive: 20000 nM,
CCSC(=O)N1CCCCCC1,inconclusive: 38400 nM,
COP(=S)(OC)SCn1nnc2ccccc2c1=O,active: 409 nM,
CS(=O)(=O)c1cc(C(F)(F)F)ccc1C(=O)c1cnoc1C1CC1,active: 20000 nM,
Oc1ccc(Cl)cc1Cc1ccccc1,inconclusive: 0.0947 nM,
O=[N+]([O-])/N=C1\NCCN1Cc1ccc(Cl)nc1,inconclusive: 20000 nM,
CCNP(=S)(OC)O/C(C)=C/C(=O)OC(C)C (stereo not given),active: 1990 nM,
Cn1c(-c2ccccc2)cc(-c2ccccc2)[n+]1C,inconclusive: 796 nM,
CC[C@H](C)[C@H]1O[C@]2(C=C[C@@H]1C)C[C@@H]1C[C@@H](C/C=C(\C)[C@@H](O[C@H]3C[C@H](OC)[C@@H](O[C@H]4C[C@H](OC)[C@@H](NC)[C@H](C)O4)[C@H](C)O3)[C@@H](C)/C=C/C=C3\CO[C@@H]4[C@H](O)C(C)=C[C@@H](C(=O)O1)[C@]34O)O2,inconclusive: 2000 nM,
CSC1=N[C@@](C)(c2ccccc2)C(=O)N1Nc1ccccc1,inconclusive: 20000 nM,
CCc1nn(C)c(C(=O)NCc2ccc(C(C)(C)C)cc2)c1Cl,inconclusive: 1880 nM,
CSc1nnc(C(C)(C)C)c(=O)n1N,active: 2970 nM,
CC[C@H](C)[C@H]1O[C@]2(C=C[C@@H]1C)C[C@@H]1C[C@@H](C/C=C(\C)[C@@H](O[C@H]3C[C@H](OC)[C@@H](O[C@H]4C[C@H](OC)[C@@H](O)[C@H](C)O4)[C@H](C)O3)[C@@H](C)/C=C/C=C3\CO[C@@H]4[C@H](O)C(C)=C[C@@H](C(=O)O1)[C@]34O)O2 (tested in a mixture with another compound),inconclusive: 472 nM,
CO/C=C(/C(=O)OC)c1ccccc1Oc1cc(Oc2ccccc2C#N)ncn1,inconclusive: 20000 nM,
CNC(=O)ON=CC(C)(C)SC,inconclusive: 0.4 nM,
COc1ccc(C(=CC(=O)N2CCOCC2)c2ccc(Cl)cc2)cc1OC,inconclusive: 38200 nM,
CCC(C)(C)C(=O)OC1=C(c2ccc(Cl)cc2Cl)C(=O)OC12CCCCC2,active: 20000 nM,
Cc1[nH]c(=O)n(C(C)(C)C)c(=O)c1Cl,,inactive
CN=C=S,inconclusive: 174 nM,
COc1cnc(OC)n2nc(NS(=O)(=O)c3c(OCC(F)F)cccc3C(F)(F)F)nc12,,inactive
N#Cc1cc(Br)c(O)c(Br)c1,inconclusive: 3970 nM,
CC(C)N1C(=O)N(c2ccccc2)CSC1=NC(C)(C)C,,inactive
N#CC(CCc1ccc(Cl)cc1)(Cn1cncn1)c1ccccc1 (stereo not given),active: 2300 nM,
CC1(C(=O)Nc2ccc(O)c(Cl)c2Cl)CCCCC1,inconclusive: 2580 nM,
CCC(=NOC/C=C/Cl)C1=C(O)CC(C2CCOCC2)CC1=O (stereo not given),,inactive
O=C1c2ccccc2C(=O)N1SC(Cl)(Cl)Cl,inconclusive: 35.5 nM,
O=S1OCC2C(CO1)C1(Cl)C(Cl)=C(Cl)C2(Cl)C1(Cl)Cl (stereo not given),inconclusive: 20000 nM,
N#Cc1nn(-c2c(Cl)cc(C(F)(F)F)cc2Cl)c(N)c1S(=O)C(F)(F)F (stereo not given),inconclusive: 20000 nM,
CC(C)NC(=O)N1CC(=O)N(c2cc(Cl)cc(Cl)c2)C1=O,active: 4680 nM,
CNC(=O)N(C)c1nnc(C(C)(C)C)s1,,inactive

# In the list so far, four have a cyano group.
SMILES,AC50,outcome
CO/C=C(/C(=O)OC)c1ccccc1Oc1cc(Oc2ccccc2C#N)ncn1,inconclusive: 20000 nM,
N#Cc1cc(Br)c(O)c(Br)c1,inconclusive: 3970 nM,
N#CC(CCc1ccc(Cl)cc1)(Cn1cncn1)c1ccccc1 (stereo not given),active: 2300 nM,
N#Cc1nn(-c2c(Cl)cc(C(F)(F)F)cc2Cl)c(N)c1S(=O)C(F)(F)F (stereo not given),inconclusive: 20000 nM,
